Measured values: paper PMC8344065
No constants are given. Whether binding was seen depends on the method and setting. In cells and extracts the contact can be indirect. Binding calls can cover weak binding; strength is not graded here.

Target: Receptor-interacting protein kinase 1 (RIPK1), rat cardiomyocytes (rat (endogenous in neonatal Sprague-Dawley cardiomyocytes))
Experiment: co-IP; neonatal rat cardiomyocytes lysed in RIPA buffer, normoxia and hypoxia (also with LC3-OE or LC3-KD adenovirus); anti-LC3B or anti-RIPK1 antibody 6 h at 4°C, protein A/G-Sepharose overnight at 4°C, 5 washes with PBS; rabbit IgG as negative control

binding: binds
B1: Receptor-interacting protein kinase 3 (RIPK3), rat cardiomyocytes (protein, UniProt Q9Z2P5 1-478)
chain: MSSVKLWLNGASSISLVGSEELENLGFVGKGGFGAVFRARHTAWNLDVAVKIVNSKKISREVKAMVNLRHENVLLLLGVTENLEWDYVYGPALVTGFMENGSLSGLLQPSCPRPWPLLCRLLEEVVLGMCYLHSLNPSLLHRDLKPSNVLLDPELHAKLADFGLSTFQGGSQSGSGSGSRDSGGTLAYLAPELLDNDGKASKASDVYSFGVLVWTVLAGREAEVVDKTSLIRGAVCNRQRRPPLTELPPDSPETPGLEGLKELMTHCWSSEPKDRPSFQDCESKTNNVYILVQDKVDAAVSKVKHYLSQYRSSDTKLSARESSQKGTEVDCPRETIVYEMLDRLHLEEPSGSVPERLTSLTERRGKEASFGHATPAGTSSDTLAGTPQIPHTLPSRGTTPRPAFTETPGPDPQRNQGDGRNSNPWYTWNAPNPMTGLQSIVLNNCSEVQIGQHNCMSVQPRTAFPKKEPAQFGRGRGW
